Measurements reported in PubChem BioAssay AID504834 (National Center for Advancing Translational Sciences (NCATS), 2011).
The whole screen tested about 320,000 compounds, of which about 22,000 (6.9%) were called active. Inconclusive results, whose numbers are uncertain, are shown with a selection of clear calls. Calls come from the whole dose curve; as a rule, active = well fitted inhibition curve with a large enough effect; inconclusive = small, poorly fitted or top-dose-only effect, or another doubt; inactive = no such curve, though single readings can be large or run the other way. Potencies beside an inconclusive call are fits to weak or partial responses and may not hold up.

Test: Primary qHTS for delayed death inhibitors of the malarial parasite plastid, 96 hour incubation
Settings: P. falciparum luciferase reporter growth; series mostly up to 28.7 µM; activity change, negative = inhibition: at the top concentration
Method in brief: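 Readout is luminescence from an integrated firefly luciferase in P. falciparum. Red cells, 2% hematocrit and 0.05% parasitemia final, were cultured with compound through two parasite generations (96 hours) at 37 C, 5% CO2.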
% is set by controls: 0 for no effect and ±100 for the full control effect; potency is the fitted concentration of half-maximal effect.

Row | SMILES | Potency | activity change, negative = inhibition
1 | Cc1cnc(C(=O)Nc2cc(S(=O)(=O)N3CCOCC3)ccc2N2CCN(C)CC2)cn1 | inconclusive: 20.8 µM [inhibitor, partial curve, poor fit] | –
2 | Cc1cc(C)c(NC(=O)/C(=C/c2ccco2)c2ccccc2)c(C)c1 | inconclusive: 13.1 µM [inhibitor, single point] | –
3 | COc1ccc(C)cc1S(=O)(=O)N(C)CC(=O)NC1CCCC1 | inconclusive: 10.4 µM [inhibitor, single point] | –
4 | COc1ccccc1N1CCN(C(=S)Nc2ccc(S(=O)(=O)N3CCOCC3)cc2)CC1 | inconclusive: 16.5 µM [inhibitor, single point] | –
5 | CCOC(=O)CCn1cc(F)c(=O)n(Cc2ccccc2)c1=O | – | inactive: 15.1%
6 | CCOC(=O)c1ccc(NC(=S)N(CCCN(CC)CC)Cc2ccco2)cc1 | active: 14.7 µM | –
7 | CN(c1cccc(Cl)c1)S(=O)(=O)c1cccc(C(=O)NCc2ccncc2)c1 | inconclusive: 14.7 µM [inhibitor, single point] | –
8 | CCOc1ccc2ccccc2c1C1NC(=O)NC(C)=C1C(=O)OCCOC (configuration not stated) | inconclusive: 11.7 µM [inhibitor, single point] | –
9 | CC(=O)OCCN1CCN(C(=O)CN2C(=O)NC(c3ccccc3)(c3ccccc3)C2=O)CC1 | – | inactive: -15.6%
10 | COc1ccc(N(C)S(=O)(=O)c2cccc3cccnc23)c(OC)c1 | inconclusive: 0.233 µM [inhibitor, full curve, poor fit] | –
11 | Cc1cccc(C(=O)N(Cc2nc3ccccc3c(=O)[nH]2)C2CCCCC2)c1 | inconclusive: 5.86 µM [inhibitor, partial curve, poor fit] | –
12 | COc1ccc(-c2cc(=O)oc3cc(OC(=O)C4CCCCC4)c(Cl)cc23)cc1 | inconclusive: 11.7 µM [inhibitor, single point] | –
13 | O=C(c1cc(Cl)nc2ccccc12)N1CCN(S(=O)(=O)c2ccccc2[N+](=O)[O-])CC1 | inconclusive: 2.33 µM [inhibitor, full curve, poor fit] | –
14 | O=C(COc1cccc2c1CCN(Cc1ccccc1F)C2=O)N1CCCCC1 | inconclusive: 6.57 µM [inhibitor, partial curve, poor fit] | –
15 | CC(C)(C)c1cnnn1-c1cccc([N+](=O)[O-])c1 | inconclusive: 7.38 µM [inhibitor, partial curve] | –
16 | Cc1ccc(OP(=O)(NC(C)c2ccccc2)Oc2ccc(C)cc2)cc1 (configuration not stated) | inconclusive: 7.38 µM [inhibitor, single point] | –
17 | Cc1cc2nc3c(=O)[nH]c(=O)nc-3n(C[C@H](O)[C@H](O)[C@H](O)COP(=O)(O)OP(=O)(O)OC[C@H]3O[C@@H](n4cnc5c(N)ncnc54)[C@H](O)[C@@H]3O)c2cc1C | inconclusive: 4.78 µM [inhibitor, partial curve, poor fit] | –

Fetched by compound from the entries so far, two records:
Row | SMILES | Potency | activity change, negative = inhibition
17 | Cc1cc2nc3c(=O)[nH]c(=O)nc-3n(C[C@H](O)[C@H](O)[C@H](O)COP(=O)(O)OP(=O)(O)OC[C@H]3O[C@@H](n4cnc5c(N)ncnc54)[C@H](O)[C@@H]3O)c2cc1C | inconclusive: 4.78 µM [inhibitor, partial curve, poor fit] | –
4 | COc1ccccc1N1CCN(C(=S)Nc2ccc(S(=O)(=O)N3CCOCC3)cc2)CC1 | inconclusive: 16.5 µM [inhibitor, single point] | –
